According to PubChem BioAssay AID256 (DTP/NCI, 2004):
The list shows only some results of the screen, not a fair sample: it gathers tests that were run many times, whatever their T/C, doses with no T/C, and many T/C values between a quarter and a half above the control. Other doses and runs of a compound stand elsewhere. T/C: endpoint of the treated group in % of that of the vehicle group. Some entries give survivors of the animals treated and no T/C: the source holds a T/C of zero for them, seemingly a mark for toxic or unscored doses. Some doses without a T/C left all or most animals alive at the check, yet need not have been tolerated: the source hardly ever lists a survival T/C far under the control, and the zero likely stands for such cases as well. Counts of survivors are from the toxicity check (mostly the fifth day) where no day follows; animals may have died later. Schedules are NCI's codes, taken here to give the interval after Q, in days (D) or hours (H), and the number of doses after X. Some entries were tested several times; their values stand side by side, smallest first. For survival time, the PubChem record calls one and a half times the control and up active, and a quarter to a half above the control has no call in these data; cut-offs in other NCI protocols can differ. Some T/C values are followed by the survivors on the day toxicity was checked, most often the fifth; where none is given, no animal had died by that day.

Test system: CD2F1 mice, L1210 leukemia ip, survival T/C
Assay: NCI In Vivo Anticancer Drug Screen. Data for tumor model L1210 Leukemia (intraperitoneal) in CD2F1 (CDF1) mice
Settings: higher T/C = longer survival
In short: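 Vehicle-treated tumor-bearing mice served as controls (C) for compound-treated mice (T). Reported figure is T divided by C.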

[1] = T/C endpoint: mean survival time, dose: 5.0 mg/kg/injection, schedule: Q01DX009 (ip), vehicle: saline
[2] = T/C endpoint: mean survival time, dose: 400.0 mg/kg/injection, schedule: Q01DX009 (ip), vehicle: saline with Tween-80
[3] = T/C endpoint: mean survival time, dose: 400.0 mg/kg/injection, schedule: Q01DX001 (ip), vehicle: saline
[4] = T/C endpoint: mean survival time, dose: 400.0 mg/kg/injection, schedule: Q01DX009 (ip), vehicle: water
[5] = T/C endpoint: mean survival time, dose: 200.0 mg/kg/injection, schedule: Q04DX003 (ip), vehicle: saline with Tween-80
[6] = T/C endpoint: mean survival time, dose: 400.0 mg/kg/injection, schedule: Q04DX003 (ip), vehicle: saline with Tween-80
[7] = T/C endpoint: mean survival time, dose: 100.0 mg/kg/injection, schedule: Q04DX003 (ip), vehicle: saline with Tween-80
[8] = T/C endpoint: mean survival time, dose: 200.0 mg/kg/injection, schedule: Q01DX009 (ip), vehicle: saline with Tween-80
[9] = T/C endpoint: mean survival time, dose: 100.0 mg/kg/injection, schedule: Q01DX009 (ip), vehicle: saline with Tween-80
[10] = T/C endpoint: mean survival time, dose: 400.0 mg/kg/injection, schedule: Q01DX001 (ip), vehicle: saline with Tween-80

With O=C1C(N2CCCCC2)=C(N2CC2)C(=O)C(N2CCCCC2)=C1N1CC1 the T/C (T/C endpoint: mean survival time, dose: 2.5 mg/kg/injection, schedule: Q01DX009 (ip), vehicle: saline) was 98, 105 [5 of 6 alive], 106, 130 % of control, the T/C [1] was 115, 117, 120, 122 % of control and the T/C (T/C endpoint: mean survival time, dose: 10.0 mg/kg/injection, schedule: Q01DX009 (ip), vehicle: saline) was 107, 112, 128, 141 % of control. For the same compound, the survivor count (T/C endpoint: mean survival time, dose: 20.0 mg/kg/injection, schedule: Q01DX009 (ip), vehicle: saline) was 3 of 6.
In the case of O=C(NN=C1CCCCC1)c1ccccc1, the survivor count [2] is reported as 0 of 6.
For Nc1ncc2c(n1)SCC2, the survivor count (T/C endpoint: mean survival time, dose: 100.0 mg/kg/injection, schedule: Q01DX001 (ip), vehicle: saline) was 1 of 6 and the survivor count [3] was 1 of 6.
OCC(O)COCC#Cc1ccccc1 (centres undefined) was tested, and the survivor count [4] was 0 of 6.
For Nc1nc(C=O)nc2c1ncn2C1OC(CO)C(O)C1O (centres undefined), the survivor count (T/C endpoint: median survival time, dose: 200.0 mg/kg/injection, schedule: Q01DX005 (ip), vehicle: water) was 3 of 6.
For O=C(NNC(=O)OCC(Cl)(Cl)Cl)OCC(Cl)(Cl)Cl, the survivor count [5] was 1 of 6 and the survivor count [6] was 2 of 6.
In the case of [Cl][Pt+2][Cl].[NH-]C1CCCC1.[NH2-], the T/C (T/C endpoint: mean survival time, dose: 1.56 mg/kg/injection, schedule: Q04DX003 (ip), vehicle: water) is reported as 126 % of control, the T/C (T/C endpoint: mean survival time, dose: 6.25 mg/kg/injection, schedule: Q04DX003 (ip), vehicle: saline with Tween-80) is reported as 143 % of control and the T/C (T/C endpoint: mean survival time, dose: 6.25 mg/kg/injection, schedule: Q04DX003 (ip), vehicle: water) is reported as 128 % of control. The T/C (T/C endpoint: mean survival time, dose: 12.5 mg/kg/injection, schedule: Q04DX003 (ip), vehicle: saline with Tween-80) was 133 % of control, the survivor count (T/C endpoint: mean survival time, dose: 25.0 mg/kg/injection, schedule: Q04DX003 (ip), vehicle: saline with Tween-80) was 3 of 6 and the survivor count (T/C endpoint: mean survival time, dose: 50.0 mg/kg/injection, schedule: Q04DX003 (ip), vehicle: saline with Tween-80) was 3 of 6. For the same compound, the survivor count [7] was 0 of 6.
COC1=C(Br)[C@H](O)[C@](O)(CC#N)C=C1Br was tested, and the survivor count (T/C endpoint: mean survival time, dose: 140.0 mg/kg/injection, schedule: Q01DX009 (ip), vehicle: Klucel (hydroxypropylcellulose) (HPC)) was 4 of 6.
In the case of CCCCCNCCOC(=O)c1ccc(N)cc1, the survivor count (T/C endpoint: mean survival time, dose: 80.0 mg/kg/injection, schedule: Q01DX001 (ip), vehicle: saline) is reported as 1 of 6.
In the case of CCCCN1C(=O)C(=O)N(c2cc(C)c(C)cc2C)C1=O, the survivor count (T/C endpoint: mean survival time, dose: 50.0 mg/kg/injection, schedule: Q01DX009 (ip), vehicle: saline with Tween-80) is reported as 3 of 3 and the survivor count [8] is reported as 3 of 3.
With CC(C)(C)OC(=O)NC(CSC(c1ccccc1)(c1ccccc1)c1ccccc1)C(=O)NCC(=O)O (centres undefined) the survivor count (T/C endpoint: mean survival time, dose: 150.0 mg/kg/injection, schedule: Q01DX001 (ip), vehicle: saline) was 3 of 6 and the survivor count (T/C endpoint: mean survival time, dose: 300.0 mg/kg/injection, schedule: Q01DX001 (ip), vehicle: saline) was 0 of 6.
With CCNc1nc(NC(C)C)nc(SC)n1 the survivor count (T/C endpoint: mean survival time, dose: 400.0 mg/kg/injection, schedule: Q04DX003 (ip), vehicle: saline) was 2 of 6.
For O=C(O)c1cccnc1.[Cu+2], the survivor count (T/C endpoint: mean survival time, dose: 75.0 mg/kg/injection, schedule: Q01DX001 (ip), vehicle: other) was 1 of 6, the survivor count (T/C endpoint: mean survival time, dose: 150.0 mg/kg/injection, schedule: Q01DX001 (ip), vehicle: other) was 1 of 6 and the survivor count (T/C endpoint: mean survival time, dose: 300.0 mg/kg/injection, schedule: Q01DX001 (ip), vehicle: other) was 0 of 6.
Cc1ccc(NC(=O)ON(C)C)cc1 was tested, and the survivor count (T/C endpoint: mean survival time, dose: 200.0 mg/kg/injection, schedule: Q04DX002 (ip), vehicle: other) was 0 of 3 and the survivor count (T/C endpoint: mean survival time, dose: 400.0 mg/kg/injection, schedule: Q04DX002 (ip), vehicle: other) was 0 of 3.
With CC1=NN(c2ccccc2)C(=O)C1(Br)Br the survivor count [9] was 1 of 6.
In the case of CNC(=O)NCc1ccc(C(=O)NC(C)C)cc1, the survivor count (T/C endpoint: mean survival time, dose: 800.0 mg/kg/injection, schedule: Q01DX009 (ip), vehicle: other) is reported as 0 of 6.
With CC(=O)OC1COC(n2c(O)c(N=NC(N)=S)c3cc([N+](=O)[O-])ccc32)C(OC(C)=O)C1OC(C)=O (centres undefined) the survivor count (T/C endpoint: mean survival time, dose: 200.0 mg/kg/injection, schedule: Q01DX005 (ip), vehicle: other) was 1 of 3.
In the case of Clc1nc2ccccc2nc1CI, the survivor count (T/C endpoint: mean survival time, dose: 200.0 mg/kg/injection, schedule: Q04DX003 (ip), vehicle: acetone) is reported as 0 of 6 and the survivor count (T/C endpoint: mean survival time, dose: 400.0 mg/kg/injection, schedule: Q04DX003 (ip), vehicle: acetone) is reported as 0 of 6.
Cc1ccc2c(ccc(/C=C/c3ccc(O)c4ncccc34)[n+]2C)c1 was tested, and the survivor count [9] was 2 of 6, the T/C [7] was 125 % of control and the survivor count [8] was 1 of 6. The survivor count [5] was 6 of 6, the survivor count [2] was 2 of 6 and the survivor count [6] was 6 of 6.
COCC/C(COC)=N\N=C(/CCOC)COC was tested, and the survivor count (T/C endpoint: mean survival time, dose: 400.0 mg/kg/injection, schedule: Q01DX009 (ip), vehicle: saline) was 1 of 6.
Nc1cc(=O)[nH]c(=S)[nH]1 was tested, and the survivor count (T/C endpoint: mean survival time, dose: 400.0 mg/kg/injection, schedule: Q04DX002 (ip), vehicle: saline with Tween-80) was 0 of 3.
In the case of O=C(O/N=C(\C(=O)c1ccccc1)c1ccccc1)c1ccc(Br)cc1, the survivor count [10] is reported as 6 of 6.
C=CCOCC(O)CNCC(O)COCC=C (centres undefined) was tested, and the survivor count [5] was 1 of 6 and the survivor count [6] was 0 of 6.
For O=C1C(Br)=C(Br)C(=O)C1(Br)Br, the survivor count [9] was 0 of 6, the survivor count [8] was 0 of 6 and the survivor count [2] was 0 of 6.
For N#CC1=C(N)CCC1, the survivor count [9] was 0 of 6, the survivor count [8] was 0 of 6 and the survivor count [5] was 3 of 6. For the same compound, the survivor count [2] was 0 of 6.
O=C1C(=O)c2ccccc2-c2ccccc21.O=C1C(=O)c2ccccc2-c2ccccc21.[Hg] was tested, and the survivor count (T/C endpoint: mean survival time, dose: 100.0 mg/kg/injection, schedule: Q01DX001 (ip), vehicle: saline with Tween-80) was 0 of 6, the survivor count (T/C endpoint: mean survival time, dose: 200.0 mg/kg/injection, schedule: Q01DX001 (ip), vehicle: saline with Tween-80) was 0 of 6 and the survivor count [10] was 0 of 6.
With NC(=S)NNC(=O)c1ccccc1 the survivor count (T/C endpoint: mean survival time, dose: 400.0 mg/kg/injection, schedule: Q04DX003 (ip), vehicle: Klucel (hydroxypropylcellulose) (HPC)) was 2 of 6.
With CC(C)c1cc2cc(Br)ccc2o1 the survivor count [3] was 5 of 6.
For Cc1ccc(S(=O)(=O)NN=C(c2ccccc2)c2ccccc2)cc1, the survivor count [4] was 5 of 6.
For Cc1noc(N)c1N, the T/C (T/C endpoint: median survival time, dose: 200.0 mg/kg/injection, schedule: Q01DX009 (ip), vehicle: water) was 118, 123, 124, 125 % of control, the T/C (T/C endpoint: median survival time, dose: 300.0 mg/kg/injection, schedule: Q01DX009 (ip), vehicle: water) was 128 % of control and the T/C (T/C endpoint: median survival time, dose: 400.0 mg/kg/injection, schedule: Q01DX009 (ip), vehicle: water) was 126, 133, 142, 143 % of control. For the same compound, the T/C (T/C endpoint: median survival time, dose: 600.0 mg/kg/injection, schedule: Q01DX009 (ip), vehicle: water) was 146 % of control, the T/C (T/C endpoint: median survival time, dose: 800.0 mg/kg/injection, schedule: Q01DX009 (ip), vehicle: water) was 134, 148 [5 of 6 alive], 150, 152 % of control [5 of 6 alive] and the survivor count (T/C endpoint: median survival time, dose: 1200.0 mg/kg/injection, schedule: Q01DX009 (ip), vehicle: water) was 0 of 10, 1 of 6, 3 of 6. For the same compound, the survivor count (T/C endpoint: median survival time, dose: 1600.0 mg/kg/injection, schedule: Q01DX009 (ip), vehicle: water) was 0 of 6 and the survivor count (T/C endpoint: median survival time, dose: 3200.0 mg/kg/injection, schedule: Q01DX009 (ip), vehicle: water) was 0 of 6.
For COC(CCl)(CCl)OC, the survivor count (T/C endpoint: mean survival time, dose: 40.0 mg/kg/injection, schedule: Q01DX009 (ip), vehicle: saline with Tween-80) was 6 of 6.
In the case of COc1cccc2c1C(=O)c1c(O)c3c(c(O)c1C2=O)C[C@@](O)(/C(C)=N\NC=O)C[C@@H]3OC1CC(N)C(O)C(C)O1 (some centres undefined), the T/C (T/C endpoint: mean survival time, dose: 3.0 mg/kg/injection, schedule: Q01DX009 (ip), vehicle: saline) is reported as 127 % of control, the T/C [1] is reported as 134 % of control and the T/C (T/C endpoint: mean survival time, dose: 8.0 mg/kg/injection, schedule: Q01DX009 (ip), vehicle: saline) is reported as 140 and 148 % of control. For the same compound, the T/C (T/C endpoint: mean survival time, dose: 8.0 mg/kg/injection, schedule: Q04DX003 (ip), vehicle: saline) was 132 % of control, the T/C (T/C endpoint: mean survival time, dose: 13.3 mg/kg/injection, schedule: Q01DX009 (ip), vehicle: saline) was 143 % of control and the T/C (T/C endpoint: mean survival time, dose: 13.3 mg/kg/injection, schedule: Q04DX003 (ip), vehicle: saline) was 125 % of control.
